Data on 16 molecules can be found in US20150291675A1 (published 2015).

Where a chain is given by its changes, count along the chain named. Results are given in words; binding and its absence hold for the method and conditions named. Some binding calls cover weakened binding; strength is not graded here.

T1: cynomolgus Hepcidin-25 (cynomolgus) (UniProt A7XEI3)
T1 sequence (peptide): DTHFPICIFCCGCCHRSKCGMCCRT

B1: lipocalin mutein of SEQ ID NO: 10 (designed binder)
chain: QDSTSDLIPAPPLSKVPLQQNFQDNQFHGKWYVVGLAGNEILREDKDPMKMWATIYELKEDRSYNVTIVMFLAKKCEYLFQTFVPGSQPGEFTLGDIKSSPGRTSGLVRVVSTNYNQHAMVFFKVVWQNREVFWITLYGRTKELTPELKENFIRFSKSLGLPENHIVFPVPIDQCIDGF
notes: Purified with C-terminal Strep-tag II; also called hNGAL mutein; Lcn2 mutein; not shown: C-terminal Strep-tag II encoded by phNGAL98
B2: lipocalin mutein of SEQ ID NO: 1 (designed binder)
chain: QDSTSDLIPAPPLSKVPLQQNFQDNQFHGKWYVVGLAGNEVLREDKDPMKMWATIYELEEDKSYNVTIVMFLAKKCEYLFQTFVPGSQPGEFTLGDIKSSPGRTSGLVRVVSTNYNQHAMVFFKTVWQNREVFWITLYGRTKELTSELKENFIRFSKSLGLPENHIVFPVPIDQCIDG
notes: also called hNGAL mutein; Lcn2 mutein; not shown: C-terminal Strep-tag II encoded by phNGAL98
B3: lipocalin mutein of SEQ ID NO: 13, linked to PEG40 (designed binder, not shown: small tags and cut ends)
chain: B2 chain with E59K, F71P, K74E, S87C, D96G, S100G, T125V, I135V
modifications: branched 40 k PEG-maleimide on the free Cys at position 87
B4: lipocalin mutein of SEQ ID NO: 14, linked to PEG40 (designed binder, not shown: small tags and cut ends)
chain: B2 chain with S87C
modifications: branched 40 k PEG-maleimide on the free Cys at position 87
B5: lipocalin mutein of SEQ ID NO: 11 (designed binder)
chain: B2 chain with V41I, E59K, T125V, E147G
notes: as for B1
B6: lipocalin mutein of SEQ ID NO: 8 (designed binder)
chain: B2 chain with E59K, F71P, K74E, D96G, S100G, T125V, I135V
notes: as for B1
B7: lipocalin mutein of SEQ ID NO: 12 (designed binder)
chain: B2 chain with E59K, K74E, K75E, T125V, E150K
notes: as for B1
B8: lipocalin mutein of SEQ ID NO: 9 (designed binder)
chain: B2 chain with E59K, F71S, T125V, E147G
notes: as for B1
B9: lipocalin mutein of SEQ ID NO: 2 (designed binder)
chain: QDSTSDLIPAPPLSKVPLQQNFQDNQFHGKWYVVGTAGNSILREDKDPQKMWATIYELKEDKSYNVTRVFFEGKKCRYVIETFVPGSQPGEFTLGKIKSAPGGTSILVRVVSTNYNQHAMVFFKVVWQNRELFWITLYGRTKELTSELKENFIRFSKSLGLPENHIVFPVPIDQCIDG
notes: as for B1
B10: lipocalin mutein of SEQ ID NO: 5 (designed binder)
chain: QDSTSDLIPAPPLSKVPLQQNFQDNQFHGKWYVVGAAGNSLLREDKDPMKMWATIYELKEDKSYNVTRVNFGGKKCSYLIETFVPGSQPGEFTLGSIKSRPGATSVLVRVVSTNYNQHAMVFFKLVTQNREVFWITLYGRTKELTSELKENFIRFSKSLGLPENHIVFPVPIDQCIDG
notes: as for B1
B11: lipocalin mutein of SEQ ID NO: 3 (designed binder)
chain: QDSTSDLIPAPPLSKVPLQQNFQDNQFHGKWYVVGVAGNGLLREDKDPLKMHATIYELKEDKSYNVTRVLFVRKKCRYYISTFVPGSQPGEFTLGRIKSEPGRTSFLVRVVSTNYNQHAMVFFKMVWQNREVFWITLYGRTKELTSELKENFIRFSKSLGLPENHIVFPVPIDQCIDG
notes: as for B1
B12: lipocalin mutein of SEQ ID NO: 4 (designed binder)
chain: QDSTSDLIPAPPLSKVPLQQNFQDNQFHGKWYVVGVAGNEMLREDKDPLKMLATIYELKEDKSYNVTRVMFEYKKCVYLIETFVPGSQPGEFTLGTIKSVPGLTSGLVRVVSTNYNQHAMVFFKRVWQNREVFWITLYGRTKELTSELKENFIRFSKSLGLPENHIVFPVPIDQCIDG
notes: as for B1
B13: lipocalin mutein of SEQ ID NO: 6 (designed binder)
chain: QDSTSDLIPAPPLSKVPLQQNFQDNQFHGKWYVVGLAGNEILREDKDPLKMWATIYELKEDKSYNVTRVQFGEKKCGYGIETFVPGSQPGEFTLGSIKSVPGGTSRLVRVVSTNYNQHAMVFFKFVWQNREVFWITLYGRTKELTSELKENFIRFSKSLGLPENHIVFPVPIDQCIDG
notes: as for B1
B14: lipocalin mutein of SEQ ID NO: 7 (designed binder)
chain: QDSTSDLIPAPPLSKVPLQQNFQDNQFHGKWYVVGLAGNRVLREDKDPQKMFATIYELKEDKSYNVTGVDFRTKKCLYSIGTFVPGSQPGEFTLGVIKSQPGWTSYLVRVVSTNYNQHAMVFFKTVWQNREVFWITLYGRTKELTSELKENFIRFSKSLGLPENHIVFPVPIDQCIDG
notes: as for B1
B15: lipocalin mutein of SEQ ID NO: 1, linked to albumine-binding domain (ABD) (SEQ ID NO: 15) (designed binder)
chain: QDSTSDLIPAPPLSKVPLQQNFQDNQFHGKWYVVGLAGNEVLREDKDPMKMWATIYELEEDKSYNVTIVMFLAKKCEYLFQTFVPGSQPGEFTLGDIKSSPGRTSGLVRVVSTNYNQHAMVFFKVVWQNREVFWITLYGRTKELTSELKENFIRFSKSLGLPENHIVFPVPIDQCIDGSAGAVDANSLAEAKVLANRELDKYGVSDYYKNLINNAKTVEGVKALIDEILAALPSAWSHPQFEK

The first assay has as its target lipocalin mutein of SEQ ID NO: 1, linked to albumine-binding domain (ABD) (SEQ ID NO: 15). The assay can be described thus: competition ELISA, non-biotinylated human hepcidin titrated against constant mutein; compared with SEQ ID NO: 1. (In general: In an ELISA, binding on a coated surface is turned into a signal by an enzyme label.)
On to DTHFPICIFCCGCCHRSKCGMCCKT [synthetic non-modified human Hepcidin-25], for which the binding result is on record as “binds”.

In another assay the target is T1, cynomolgus Hepcidin-25 (cynomolgus). The assay can be described thus: direct ELISA, hepcidin captured via Neutravidin.
In the case of B1, the binding result was “binds”. Take B2: the binding result is “binds”. As to B3, the binding result is listed as “binds”. For B4, the binding entry is given as “binds”. On to B5, for which the binding result is “binds”. As for B6, the binding result is given as “binds”. As to B7, the binding entry is “binds”.

As for B8, the binding entry was “binds”. Take B9: the binding result is on record as “binds”. Same read-out and setting: for B10 the value was “binds”; for B11, “binds”; for B12, “binds”. In the case of B13, the binding result is given as “binds”. For B14, the binding entry is reported as “binds”. Still for that read-out and setting: next, B15: “binds”.
